Test results from patent US6492139.
No constants are given. Whether binding was seen depends on the method and setting. Binding seen in cells or lysates may run through a third protein. Some binding calls cover weakened binding; strength is not graded here. Tags and fused reporters may be left off the sequences shown.

Protein sequences, listed by entry. Tags and fused reporters are not part of them. Lines headed by an entry give the natural chain unless they say otherwise; changes in a name come on top.
UniProt P97698: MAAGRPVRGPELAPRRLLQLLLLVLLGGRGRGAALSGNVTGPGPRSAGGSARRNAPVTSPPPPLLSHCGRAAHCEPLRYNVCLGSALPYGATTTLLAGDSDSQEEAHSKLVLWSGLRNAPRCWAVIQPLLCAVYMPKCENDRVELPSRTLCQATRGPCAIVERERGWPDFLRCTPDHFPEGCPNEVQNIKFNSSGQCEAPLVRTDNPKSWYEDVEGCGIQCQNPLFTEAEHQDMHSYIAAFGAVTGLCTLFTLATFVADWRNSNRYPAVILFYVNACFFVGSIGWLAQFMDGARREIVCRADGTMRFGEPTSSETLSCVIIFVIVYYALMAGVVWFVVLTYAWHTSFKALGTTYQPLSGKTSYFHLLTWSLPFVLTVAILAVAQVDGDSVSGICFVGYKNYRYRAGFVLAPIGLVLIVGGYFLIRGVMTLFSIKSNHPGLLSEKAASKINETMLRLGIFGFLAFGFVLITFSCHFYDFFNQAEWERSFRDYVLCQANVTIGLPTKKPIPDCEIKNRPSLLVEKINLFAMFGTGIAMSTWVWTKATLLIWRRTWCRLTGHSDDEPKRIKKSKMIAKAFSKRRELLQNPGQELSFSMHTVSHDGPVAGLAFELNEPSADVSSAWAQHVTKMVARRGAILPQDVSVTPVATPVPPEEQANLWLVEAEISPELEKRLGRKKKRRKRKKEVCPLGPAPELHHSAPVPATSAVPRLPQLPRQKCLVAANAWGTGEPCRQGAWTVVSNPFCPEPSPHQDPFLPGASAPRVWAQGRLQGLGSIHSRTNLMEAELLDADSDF

What was measured:
[1] = molecular target: T1, Myc tagged mPatched (murine Patched with C-terminal Myc epitope tag) (mouse) (UniProt Q61115); assay: co-immunoprecipitation and Western blot (legend of FIG. 7)
T1 sequence (looked up): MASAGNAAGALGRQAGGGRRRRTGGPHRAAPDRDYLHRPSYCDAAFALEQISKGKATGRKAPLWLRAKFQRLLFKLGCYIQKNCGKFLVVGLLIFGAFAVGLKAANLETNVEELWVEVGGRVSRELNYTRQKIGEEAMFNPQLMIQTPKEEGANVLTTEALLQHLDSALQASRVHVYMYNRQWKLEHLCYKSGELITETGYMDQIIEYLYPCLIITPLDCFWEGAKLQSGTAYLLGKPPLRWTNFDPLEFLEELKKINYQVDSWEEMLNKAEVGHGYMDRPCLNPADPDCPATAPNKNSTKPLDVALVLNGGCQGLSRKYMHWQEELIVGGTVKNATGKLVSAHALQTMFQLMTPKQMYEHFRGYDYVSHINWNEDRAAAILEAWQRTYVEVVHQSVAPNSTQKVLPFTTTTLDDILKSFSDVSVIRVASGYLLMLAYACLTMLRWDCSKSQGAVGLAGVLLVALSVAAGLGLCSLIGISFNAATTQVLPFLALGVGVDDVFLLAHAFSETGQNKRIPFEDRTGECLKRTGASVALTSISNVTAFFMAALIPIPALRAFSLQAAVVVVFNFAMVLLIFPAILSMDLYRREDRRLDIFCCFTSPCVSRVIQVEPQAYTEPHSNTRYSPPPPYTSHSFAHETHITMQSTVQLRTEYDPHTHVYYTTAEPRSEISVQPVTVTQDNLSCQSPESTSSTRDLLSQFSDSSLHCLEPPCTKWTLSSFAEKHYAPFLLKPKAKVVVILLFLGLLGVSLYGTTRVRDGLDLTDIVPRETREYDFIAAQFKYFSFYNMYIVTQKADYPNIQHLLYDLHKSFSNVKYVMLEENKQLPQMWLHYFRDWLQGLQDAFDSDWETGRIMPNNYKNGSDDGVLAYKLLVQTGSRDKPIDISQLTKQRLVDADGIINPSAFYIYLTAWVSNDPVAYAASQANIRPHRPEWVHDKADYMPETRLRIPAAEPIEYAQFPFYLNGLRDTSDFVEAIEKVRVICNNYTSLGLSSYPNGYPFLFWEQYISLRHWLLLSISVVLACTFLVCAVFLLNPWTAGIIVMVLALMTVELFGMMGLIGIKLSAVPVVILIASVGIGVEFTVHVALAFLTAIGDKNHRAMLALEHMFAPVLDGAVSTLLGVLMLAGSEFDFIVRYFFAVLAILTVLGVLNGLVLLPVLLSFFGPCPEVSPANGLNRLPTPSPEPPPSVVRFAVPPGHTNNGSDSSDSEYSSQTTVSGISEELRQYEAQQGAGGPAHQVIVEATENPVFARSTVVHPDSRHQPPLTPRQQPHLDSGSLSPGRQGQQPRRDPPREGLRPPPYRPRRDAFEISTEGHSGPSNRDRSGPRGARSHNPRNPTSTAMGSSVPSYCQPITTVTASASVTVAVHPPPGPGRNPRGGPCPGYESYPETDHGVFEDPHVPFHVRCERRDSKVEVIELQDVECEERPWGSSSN

[2] = molecular target: T1, Myc tagged mPatched (murine Patched with C-terminal Myc epitope tag) (mouse); assay: reciprocal co-immunoprecipitation and Western blot, 293 cells co-expressing both

binding [1]: binds
binding [2]: binds
Substance: Flag tagged rSmo (rat Smoothened with C-terminal Flag epitope tag) (from UniProt P97698 33-793) (receptor)
